{
  "source": "PubChem BioAssay AID624297",
  "about": "(National Center for Advancing Translational Sciences (NCATS), 2012)",
  "note": "The campaign covered roughly 340,000 compounds. About 6,200 (1.8%) were called active. Inconclusive means that the source gave no clear call. Such entries were picked first, then a sample of the others. The call rests on the fitted dose curve; in most records, active means well fitted activation curve with a large enough effect; inconclusive means small, poorly fitted or top-dose-only effect; inactive means no such curve, though single readings can be large or run the other way. Potencies beside an inconclusive call are fits to weak or partial responses and may not hold up. Potency means the concentration at half of the fitted maximal effect.",
  "data": [
    {"experiment": "A quantitative high throughput screen for small molecules that induce DNA re-replication in SW480 colon adenocarcinoma cells; further: nearly all actives have a fitted effect of over 55% in size; on re-replication activation: % of control where 0% means no effect.", "settings": "Hoechst DNA content imaging, 48 h; re-replication activation: at 46.1 µM (top of the series)", "how_it_was_run": "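Readout is total intensity of Hoechst-stained nuclei, excited at 405 nm and collected at 500-530 nm. Compound treatment lasted 48 hr at 37 C in 5% CO2 before staining.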", "values": [
      {"smiles": "COc1cc(OC)cc(C(=O)NC(=S)NNC(=O)c2cnccn2)c1", "Potency": "inconclusive: 4.11 µM [activator, single point]"},
      {"smiles": "CCN(CC)c1ccc(NC2CC(=O)N(CCc3ccc(OC)cc3)C2=O)cc1", "note": "(stereo not drawn)", "Potency": "inconclusive: 18.4 µM [activator, single point]"},
      {"smiles": "CC1CCCCN1C(=O)CSc1ccc(-c2ccc(F)cc2)nn1", "note": "(stereo not drawn)", "re-replication activation": "inactive: -2.58%"},
      {"smiles": "CC(=O)OCCCNc1cc(Sc2ccc(C)cc2)c2nonc2c1[N+](=O)[O-]", "Potency": "inconclusive: 10.3 µM [activator, partial curve, poor fit]"},
      {"smiles": "COc1ccc2cc3cc(C(=O)NCCN4CCc5ccccc5C4)sc3nc2c1", "re-replication activation": "inactive: -3.76%"},
      {"smiles": "O=C(CSc1nnc(Cn2cnc3ccccc32)o1)c1ccccc1", "Potency": "inconclusive: 20.6 µM [activator, single point]"},
      {"smiles": "CC1(C)CC[C@]2(C(=O)O[C@@H]3O[C@H](CO)[C@@H](O)[C@H](O)[C@H]3O)CC[C@]3(C)C(=CCC4[C@@]5(C)CC[C@H](O[C@@H]6O[C@H](C(=O)O)[C@@H](O[C@H]7OC[C@@H](O)[C@@H](O)[C@@H]7O)[C@H](O)[C@H]6O)C(C)(C)C5CC[C@]43C)[C@@H]2C1", "note": "(stereo partly drawn)", "re-replication activation": "inactive: 14.1%"},
      {"smiles": "CCOC(=O)N/N=C/c1c(C)nn(-c2cccc(C(F)(F)F)c2)c1Cl", "Potency": "active: 5.8 µM"},
      {"smiles": "Cc1ccsc1C(=O)N1CCN(c2ncccn2)CC1", "Potency": "inconclusive: 29.1 µM [activator, single point]"},
      {"smiles": "Cc1cc(C)n(CC(=O)NC2CCCN(Cc3ccc(Cl)cc3)C2)n1", "note": "(stereo not drawn)", "Potency": "inconclusive: 1.3 µM [activator, full curve, poor fit]"},
      {"smiles": "C/C=C(/C)C(=O)Nc1cccc(C2=NOC3(C2)C[C@@H](C(N)=O)N(C(=O)[C@H]2CCC(=O)N2)C3)c1", "note": "(stereo partly drawn)", "Potency": "inconclusive: 0.326 µM [activator, full curve, poor fit]"},
      {"smiles": "CCN(CC)CCN1C(=O)c2cccc3cc(N)cc(c23)C1=O", "Potency": "inconclusive: 25.9 µM [activator, single point]"},
      {"smiles": "O=C(NCc1cccs1)C1CC(c2ccc(Cl)cc2)=NO1", "note": "(stereo not drawn)", "Potency": "inconclusive: 29.1 µM [activator, single point]"},
      {"smiles": "O=C(COc1ccc(Br)cc1)Nc1nc(-c2cccnc2)cs1", "Potency": "inconclusive: 23.1 µM [activator, single point]"},
      {"smiles": "N#C/C(=C\\c1c[nH]c2ccccc12)C(=O)NC1CCCC1", "Potency": "inconclusive: 6.51 µM [activator, single point]"},
      {"smiles": "COc1ccc2[nH]c3c(c2c1)CCNC3C1CC=C(C)CC1", "note": "(stereo not drawn)", "Potency": "inconclusive: 18.4 µM [activator, single point]"},
      {"smiles": "Cn1c(N)c(C(=O)COC(=O)COc2ccc3ccccc3c2)c(=O)n(C)c1=O", "re-replication activation": "inactive: -6.61%"},
      {"smiles": "CN(C(=S)Nc1ccccc1F)C1(c2ccccc2Cl)CCCCC1=O", "note": "(stereo not drawn)", "re-replication activation": "inactive: -0.0024%"},
      {"smiles": "O=C(Nc1nonc1-c1ccc(Cl)cc1)c1ccccc1", "Potency": "inconclusive: 0.326 µM [activator, partial curve, poor fit]"},
      {"smiles": "C=C(C)c1ccc(C(C)(C)NC(=O)NCc2ccco2)cc1", "re-replication activation": "inactive: -10.5%"},
      {"smiles": "COc1ccc(-c2nnn(-c3cc(Cl)cc(Cl)c3)c2N)cc1", "Potency": "inconclusive: 16.4 µM [activator, single point]"},
      {"smiles": "CC1CCN(Cc2nnnn2CCCC(=O)NCC(C)(C)N2CCOCC2)CC1", "Potency": "inconclusive: 29.1 µM [activator, single point]"},
      {"smiles": "COc1cccc(C2=CC(c3cc(OC)ccc3OC)n3nnnc3N2)c1", "note": "(stereo not drawn)", "Potency": "inconclusive: 23.1 µM [activator, single point]"},
      {"smiles": "COCCn1c(C)cc(C(=O)COC(=O)c2ccccc2Br)c1C", "re-replication activation": "inactive: 5.72%"},
      {"smiles": "CC(=O)c1ccc(NC(=O)COC(=O)c2ccc(F)cc2F)cc1", "re-replication activation": "inactive: -3.21%"},
      {"smiles": "CCOc1ccccc1OCC(=O)Nc1ccc(S(=O)(=O)Nc2nc(C)cc(C)n2)cc1", "re-replication activation": "inactive: -5.73%"},
      {"smiles": "CC[C@]12c3[nH]c4ccc(OC)cc4c3CCN1C(=O)C(CC(=O)NCc1ccco1)C[C@@H]2C(=O)N1CCN(C(=O)c2ccco2)CC1", "note": "(stereo partly drawn)", "Potency": "inconclusive: 14.6 µM [activator, single point]"},
      {"smiles": "CCOc1ccc2[nH]c(=O)c(CN(Cc3ccco3)C(=O)c3ccc(Br)cc3)cc2c1", "Potency": "inconclusive: 29.1 µM [activator, single point]"},
      {"smiles": "O=c1[nH]nc(SCCS(=O)(=O)c2ccc(F)cc2)n1-c1ccccc1C(F)(F)F", "Potency": "inconclusive: 29.1 µM [activator, single point]"},
      {"smiles": "CCN(CC)S(=O)(=O)c1ccc(N2CCOCC2)c(NC(=O)CC2OC(=O)c3ccccc32)c1", "note": "(stereo not drawn)", "Potency": "inconclusive: 4.61 µM [activator, full curve, poor fit]"},
      {"smiles": "CCC(=O)NCCn1ccc2ccccc21", "re-replication activation": "inactive: 9.11%"},
      {"smiles": "CCOC(=O)c1c(NC(=O)C(C)Sc2cccc[n+]2[O-])sc2c1CCN(Cc1ccccc1)C2", "note": "(stereo not drawn)", "Potency": "inconclusive: 11.6 µM [activator, partial curve, poor fit]"},
      {"smiles": "COc1ccc(C)cc1S(=O)(=O)N1CCC(C)CC1", "re-replication activation": "inactive: 7.91%"},
      {"smiles": "CCCCn1cnc2c(SCc3ccccc3Cl)nc(N)nc21", "Potency": "inconclusive: 20.6 µM [activator, partial curve, poor fit]"},
      {"smiles": "O=C(NCc1cccc(F)c1F)C1CCC(=O)N(C2CCCCCC2)C1", "note": "(stereo not drawn)", "re-replication activation": "inactive: 0.319%"},
      {"smiles": "Cc1cccc(NC(=O)/C(C#N)=C/c2ccc(Sc3ccccc3)o2)c1C", "Potency": "inconclusive: 29.1 µM [activator, single point]"},
      {"smiles": "N=C(c1cccc([N+](=O)[O-])c1)N1CCCCCC1", "re-replication activation": "inactive: -3.75%"},
      {"smiles": "CC(OC(=O)/C=C/c1ccc2ccccc2n1)C(=O)NCc1ccccc1", "note": "(stereo not drawn)", "Potency": "inconclusive: 23.1 µM [activator, partial curve, poor fit]"},
      {"smiles": "Cc1ccccc1Oc1nc2c(C)cccn2c(=O)c1/C=C(\\C#N)C(=O)NC1CCS(=O)(=O)C1", "note": "(stereo not drawn)", "re-replication activation": "inactive: 2.14%"},
      {"smiles": "CC(=O)NC12CC3CC(C1)CC(C(=O)Nc1cccc(S(=O)(=O)N4CCCCCC4)c1)(C3)C2", "re-replication activation": "inactive: -0.35%"},
      {"smiles": "Cc1ccccc1NC(=O)c1cccc(S(=O)(=O)Oc2ccc([N+](=O)[O-])cc2)c1", "Potency": "inconclusive: 29.1 µM [activator, partial curve, poor fit]"},
      {"smiles": "CC(=O)N1c2ccccc2Sc2ccccc21", "re-replication activation": "inactive: 4.58%"},
      {"smiles": "CCOC(=O)c1ccc(NC(=O)/C=C/c2cccs2)cc1", "Potency": "inconclusive: 18.4 µM [activator, single point]"},
      {"smiles": "Cc1cccc(OCCC(=O)NCC(=O)Nc2cccc(C)c2C)c1", "re-replication activation": "inactive: -4.64%"},
      {"smiles": "Cc1ccc(/C(N)=N/OC(=O)c2ccc3c(c2)OCO3)cc1", "re-replication activation": "inactive: -3.71%"},
      {"smiles": "Cc1ccc(C(=O)Nc2ccncc2)cc1S(=O)(=O)N1CCOCC1", "Potency": "inconclusive: 20.6 µM [activator, single point]"},
      {"smiles": "Cc1ccc(S(=O)(=O)N2CCCCC2)cc1C(=O)N(CCc1ccccc1)Cc1ccccc1", "Potency": "inconclusive: 32.6 µM [activator, partial curve, poor fit]"},
      {"smiles": "C=CCN1C(=O)c2ccc(C(=O)OCC(=O)N(CC)C3CCS(=O)(=O)C3)cc2C1=O", "note": "(stereo not drawn)", "Potency": "inconclusive: 32.6 µM [activator, single point]"},
      {"smiles": "CC1CCC(NC(=O)c2cccc(S(=O)(=O)N3CCN(c4ccc(F)cc4)CC3)c2)CC1", "note": "(stereo not drawn)", "re-replication activation": "inactive: -0.0705%"},
      {"smiles": "Cc1ccc(NS(=O)(=O)c2cc([N+](=O)[O-])ccc2NNC(=S)Nc2cc(C)ccc2C)c(C)c1", "Potency": "inconclusive: 0.326 µM [activator, full curve, poor fit]"},
      {"smiles": "CC1CC(C)CN(CCCNC(=O)c2ccc3c(c2)NC(=O)CS3)C1", "note": "(stereo not drawn)", "re-replication activation": "inactive: -0.0151%"},
      {"smiles": "CCOC(=O)C1(CCOc2ccccc2)CCN(Cc2cccc3c2OCO3)CC1", "Potency": "inconclusive: 29.1 µM [activator, partial curve, poor fit]"},
      {"smiles": "O=C1NC(=S)SC1=Cc1ccc(F)cc1", "re-replication activation": "inactive: -6.69%"},
      {"smiles": "CCN1CCc2c(sc(N)c2C#N)C1", "re-replication activation": "inactive: 3.49%"},
      {"smiles": "CCCN(CCC)CCCNC(=S)Nc1ccc2nc(N3CCN(C)CC3)cc(C)c2c1", "Potency": "inconclusive: 29.1 µM [activator, single point]"},
      {"smiles": "CC(C)c1cc(C(=O)N/N=C/C=C/c2ccccc2)n[nH]1", "re-replication activation": "inactive: -2.8%"},
      {"smiles": "COc1ccc(/C=N/NC(=O)c2snnc2C)c(OC)c1OC", "Potency": "inconclusive: 0.461 µM [activator, partial curve, poor fit]"},
      {"smiles": "CCOc1ccc(S(=O)(=O)Nc2cc(S(=O)(=O)N(CC)CC)ccc2N2CCCC2)cc1", "Potency": "inconclusive: 23.1 µM [activator, partial curve, poor fit]"},
      {"smiles": "Cc1ccc(CC(=O)Nc2ccc(S(=O)(=O)Nc3nccc(C)n3)cc2)cc1", "Potency": "inconclusive: 11.6 µM [activator, single point]"},
      {"smiles": "Cn1c(COc2ccccc2)nnc1SCC(=O)NC1CCCC1", "re-replication activation": "inactive: -8.79%"},
      {"smiles": "O=C(NC1CCN(Cc2ccccc2)CC1)c1cc(S(=O)(=O)N2CCOCC2)ccc1Cl", "Potency": "inconclusive: 29.1 µM [activator, single point]"},
      {"smiles": "COc1ccc(CNC(=O)c2cc(=O)c3ccccc3o2)cc1", "Potency": "inconclusive: 20.6 µM [activator, single point]"},
      {"smiles": "CCNC(=O)NC(=O)CSc1ccc(S(=O)(=O)N2CCOCC2)cn1", "Potency": "inconclusive: 1.03 µM [activator, single point]"},
      {"smiles": "C/C(CC1CC(COCC(C)C)OC1=O)=N\\NC(N)=S", "note": "(stereo not drawn)", "Potency": "inconclusive: 1.84 µM [activator, partial curve, poor fit]"},
      {"smiles": "CCOc1ccccc1NC(=O)Nc1ccc2c(c1)OCO2", "re-replication activation": "inactive: -3.32%"},
      {"smiles": "COc1ccc(/C=N/Nc2cc(C)nc(-n3nc(C)cc3C)n2)cc1", "Potency": "inconclusive: 29.1 µM [activator, single point]"},
      {"smiles": "Cc1ccc(S(=O)(=O)Nc2ccc3ncccc3c2)cc1", "Potency": "inconclusive: 32.6 µM [activator, partial curve, poor fit]"},
      {"smiles": "C=CCc1cc(C=O)cc(OC)c1OCc1ccc(Cl)cc1", "re-replication activation": "inactive: 9.1%"}
    ]}
  ]
}
